Data as given in PubChem BioAssay AID504444 (National Center for Advancing Translational Sciences (NCATS), 2011).
About 7,500 (2.1%) of roughly 360,000 compounds were called active. This list was built around the results that the source calls inconclusive (neither active nor inactive); the mix of calls is not that of the screen. The call rests on the fitted dose curve; in most records, active means well fitted inhibition curve with a large enough effect; inconclusive means small, poorly fitted or top-dose-only effect, or effect the other way; inactive means flat fitted curve, though single readings scatter. Potencies of inconclusive entries are doubtful fits and often do not repeat.

assay: Nrf2 qHTS screen for inhibitors; settings: A549 ARE-Fluc reporter, luciferase luminescence, 18-24 h; activity change, negative = inhibition: at 46 µM (top of the series); further: nearly all actives have a fitted effect of over 60% in size
Method in brief: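 In this cell-based qHTS, ARE-driven firefly luciferase in A549 cells reports Nrf2 activity; the luminescent signal after BugLite lysis is the measured value, with a prior CellTiter-Fluor read for cell health.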
On the % scale 0 is the no-effect control and ±100 the full control effect; potency means the concentration at half of the fitted maximal effect.

Structure (SMILES) | Potency | activity change, negative = inhibition
COc1ccc(CNCC(O)(c2ccc(Cl)cc2)c2ccc(Cl)cc2)cc1OC | inconclusive: 32.6 µM [falling, single point] | 
O=C(Nc1ccc(Cl)cc1)NN1CCCCCC1 | inconclusive: 2.91 µM [activator, full curve, poor fit] | 
CC(=O)Nc1ccc(NC(=O)CN2CCCC(C)C2)c(Cl)c1 (stereo unspecified) | inconclusive: 7.31 µM [activator, partial curve, poor fit] | 
O=C(/C=C/c1ccco1)OCC1CCCN2CCCCC12 (stereo unspecified) | inconclusive: 29.1 µM [activator, single point] | 
CCOC(=O)CC(NC(=O)Cn1nnc(-c2ccc(C(F)(F)F)cc2)n1)c1ccccc1Cl (stereo unspecified) | inconclusive: 6.51 µM [falling, full curve, poor fit] | 
O=c1c(-c2ccc3c(c2)OCCO3)coc2cc(O)cc(O)c12 | inconclusive: 29.1 µM [activator, single point] | 
CC(=O)c1ccc(OCCCC(=O)Nc2ccc(C)c(S(=O)(=O)N3CCOCC3)c2)cc1 | inconclusive: 29.1 µM [falling, single point] | 
Cc1cc(=O)oc2c(CN3CCCC3)c(O)ccc12 |  | inactive: 4.87%
COc1ccc(S(=O)(=O)Nc2ccc3c(c2)N(C(C)=O)CCC3)cc1OC |  | inactive: -20.1%
Cc1nn(-c2ccccc2)c(-n2cccc2)c1C(=O)NCc1ccccc1Cl | inconclusive: 29.1 µM [activator, single point] | 
O=C(Nc1c(F)cc(F)cc1Br)c1cc(S(=O)(=O)N2CCN(c3ccccn3)CC2)ccc1F | inconclusive: 5.17 µM [falling, full curve, poor fit] | 
CCn1c(SCC(=O)N2c3ccccc3CCc3ccccc32)nc2c1c(=O)n(C)c(=O)n2C | inconclusive: 5.8 µM [falling, full curve, poor fit] | 
CN1C(=O)CSc2ccc(NC(=O)N3CCc4ccccc43)cc21 | inconclusive: 1.16 µM [activator, full curve] | 
O=C1NCCN(Cc2ccc(-c3ccccc3)cc2)C1CC(=O)N1CCN(CCO)CC1 (stereo unspecified) |  | inactive: 5.85%
CN(C)c1ccc(CNC(=O)c2cc3ccccn3n2)cc1 | inconclusive: 3.26 µM [falling, partial curve, poor fit] | 
COc1cc(F)c(S(=O)(=O)N2CCCN(S(=O)(=O)c3ccc(NC(C)=O)cc3)CC2)c(F)c1 | inconclusive: 29.1 µM [falling, single point] | 
Cc1cc(C)cc(NC(=O)CSc2nnc(COc3ccccc3Cl)o2)c1 | inconclusive: 25.9 µM [falling, single point] | 
COC(=O)c1sccc1-c1ccc(/C=N/OCc2c(Cl)cccc2Cl)o1 |  | inactive: 27.4%
Cc1ccc(S(=O)(=O)N2CCN(c3ccc([N+](=O)[O-])c4cccnc34)CC2)cc1 |  | inactive: -10.3%
O=C(NC1CC1)c1nc2c(nnn2Cc2ccccc2Cl)c(=O)[nH]1 |  | inactive: -7.08%
CC(C)CCNc1nc(N)c([N+](=O)[O-])c(NCCO)n1 | inconclusive: 8.2 µM [activator, partial curve, poor fit] | 
COc1nc(-c2ccccc2)c2c(c1C#N)CC(C)(C)OC2 | inconclusive: 16.4 µM [falling, partial curve, poor fit] | 

Structure (SMILES) | Potency | activity change, negative = inhibition
CC(C)(C)OC(=O)N1CCC(c2c(C(=O)Nc3cccc(C(F)(F)F)c3)cnn2-c2ccc(F)cc2F)CC1 | inconclusive: 32.6 µM [falling, single point] | 
O=C(Nc1nnc(COc2ccc(F)cc2)s1)Nc1ccccc1F | inconclusive: 14.6 µM [falling, partial curve, poor fit] | 
Cc1oc(-c2ccc(Cl)cc2)nc1CS(=O)CC(=O)NCCCN1CCN(Cc2ccccc2)CC1 (stereo unspecified) | active: 5.8 µM | 
Cc1ccc(NC(=O)COC(=O)Cn2cnc3c2c(=O)n(C)c(=O)n3C)cc1 | inconclusive: 16.4 µM [activator, partial curve, poor fit] | 
Cn1cc(SCC(=O)NCCc2ccccc2)c2ccccc21 | inconclusive: 10.3 µM [falling, partial curve, poor fit] | 
COc1cc2ncnc(NCc3cc(F)ccc3F)c2cc1OC | inconclusive: 11.6 µM [falling, partial curve] | 
CCc1c(C#N)c(SCCC(=O)Nc2ccc(F)cc2)nc2c1C(=O)CC(C)(C)C2 | active: 18.4 µM | 
Cc1c(C)n(Cc2ccc(F)cc2)c2ccc(C(=O)N3CCN(c4ccc(Cl)cc4)CC3)cc12 | inconclusive: 29.1 µM [falling, single point] | 
O=C(CSc1nc2ccc(NC(=O)C3CCCCC3)cc2s1)NCC1CCCO1 (stereo unspecified) | inconclusive: 29.1 µM [falling, single point] | 
COc1cccc(C2C(C(=O)Nc3ccc(Cl)cc3)=C(C)Nc3c(C(=O)Nc4ccccc4)cnn32)c1OC (stereo unspecified) | inconclusive: 18.4 µM [falling, single point] | 
CCOC(=O)c1cnc2ccccc2c1NCc1ccco1 | inconclusive: 20.6 µM [falling, single point] | 
O=C(c1ccc(-c2ccc([N+](=O)[O-])cc2)o1)N1CCCCC1 | inconclusive: 1.16 µM [activator, full curve] | 
CC1(C(=O)NC2CCCCC2)Cc2ccccc2C(=O)N1Cc1ccc(Cl)cc1 (stereo unspecified) |  | inactive: 1.74%
C=C1N(C)c2cc([N+](=O)[O-])c(N)cc2C1(C)C | inconclusive: 23.1 µM [falling, partial curve, poor fit] | 
CCCn1c2ccccc2c2cnn(CC(=O)Nc3cccc(C(=O)OCC)c3)c(=O)c21 |  | inactive: 2.13%
CC(C)CC(=O)N1CCC(O)(CS(=O)(=O)Cc2ccccc2)CC1 | inconclusive: 6.51 µM [activator, single point] | 
CCCN1CCC(=O)N(C(CSc2ccc(OC)cc2)c2ccccc2)CC1 (stereo unspecified) |  | inactive: 14.9%
CCCCn1c(N)c(N(CCC(C)C)C(=O)COC(=O)/C=C/c2ccc(F)cc2)c(=O)[nH]c1=O | inconclusive: 29.1 µM [falling, single point] | 
Brc1ccccc1-c1nc2c3ccccc3ncn2n1 | inconclusive: 18.4 µM [activator, partial curve, poor fit] | 
O=C(NCc1cccs1)c1nn(-c2ccccc2)nc1CO | inconclusive: 20.6 µM [falling, partial curve] | 
Oc1ccc(CN2CCN(Cc3ccccc3)CC2)c2cccnc12 |  | inactive: -12.7%
Cc1ccc(NC(=O)Cn2c(=O)n(-c3ccc(C)cc3)c(=O)c3ccc(C(=O)NCc4ccccc4Cl)cc32)cc1 | inconclusive: 29.1 µM [falling, single point] | 

Laid out differently: results already given
Structure (SMILES),Potency,"activity change, negative = inhibition"
Brc1ccccc1-c1nc2c3ccccc3ncn2n1,"inconclusive: 18.4 µM [activator, partial curve, poor fit]",
O=C(NCc1cccs1)c1nn(-c2ccccc2)nc1CO,"inconclusive: 20.6 µM [falling, partial curve]",
Oc1ccc(CN2CCN(Cc3ccccc3)CC2)c2cccnc12,,inactive: -12.7%

(more compounds)

Structure (SMILES) | Potency | activity change, negative = inhibition
CC1CCN(Cc2nc(-c3ccc(Cl)cc3)no2)CC1 | inconclusive: 16.4 µM [activator, partial curve] | 
C=CCOC(=O)/C(=C/c1ccco1)NC(=O)/C=C/c1ccccc1 |  | inactive: -7.81%
Cc1nnc(NC(=O)C2c3ccccc3Oc3ccccc32)s1 | inconclusive: 18.4 µM [falling, partial curve] | 
CCOC(=O)c1[nH]c(C)c(C(=O)OCCOc2cccc(C)c2)c1C | inconclusive: 0.0052 µM [falling, full curve, poor fit] | 
CCC(CC)C(=O)NCc1ccc2c(c1)cc(C)n2C | inconclusive: 9.2 µM [falling, partial curve] | 
O=C(NCC1CCCO1)c1ccc(S(=O)(=O)Nc2ccc(F)cc2)cc1 (stereo unspecified) |  | inactive: -17.6%
O=C(CCC(=O)N1CCN(c2ccccc2F)CC1)N1CCN(c2ccccc2)CC1 | inconclusive: 20.6 µM [falling, partial curve] | 
CON(C)C(=O)CC(CN(Cc1ccccc1)C(=O)OC(C)(C)C)c1ccc(Cl)cc1 (stereo unspecified) | inconclusive: 20.6 µM [falling, single point] | 
CCOc1cc2sc(N3CCC(C(=O)Nc4ccc(C(C)C)cc4)CC3)nc2cc1Br | inconclusive: 6.51 µM [activator, full curve] | 
N#Cc1ccc(COC(=O)CC(NC(N)=O)c2ccc(Cl)cc2)cc1 (stereo unspecified) | inconclusive: 2.59 µM [activator, partial curve] | 
Cn1cc(Cl)c(C(=O)Nc2nc3ccc([N+](=O)[O-])cc3s2)n1 | inconclusive: 2.31 µM [activator, full curve] | 
COc1ccc(Nc2nc(N)c([N+](=O)[O-])c(NC3CCCCC3)n2)cc1 |  | inactive: 3.73%
COc1ccc(-c2c(C#N)c(N)nc(Sc3ccc(Cl)cc3)c2C#N)cc1 | inconclusive: 29.1 µM [falling, single point] | 
COc1ccc(C)c2sc(=NC(=O)c3ccc(C(C)=O)cc3)n(C)c12 | inconclusive: 0.461 µM [activator, full curve, poor fit] | 
O=C(O)Cc1c[nH]c2ccc(O)cc12 |  | inactive: 1.12%
Cc1cc(=O)n(Cc2cccc(Br)c2)c2c1c(C)nn2-c1ccccc1 |  | inactive: 42.9%
O=S(=O)(c1ccccc1)N1CCC(Oc2ccc(-n3cnnn3)cc2)CC1 | inconclusive: 18.4 µM [falling, single point] | 
Cc1cccc(CNC(=O)Cc2csc3ccccc23)c1 | inconclusive: 13 µM [activator, partial curve] | 
O=C(CSc1nc2ccccc2o1)N/N=C/c1ccco1 | inconclusive: 18.4 µM [falling, single point] | 
Cc1ccc(-c2csc(NC(=O)/C=C/c3cccs3)n2)cc1C | inconclusive: 23.1 µM [falling, single point] | 
Clc1nnc(N/N=C/c2ccccc2)c2ccccc12 | inconclusive: 0.231 µM [activator, full curve, poor fit] | 
COc1ccccc1NC(=O)c1cc2c(s1)-c1ccccc1S(=O)(=O)C2 | inconclusive: 32.6 µM [falling, single point] | 
